No constants are given. Whether binding was seen depends on the method and setting. In cells and extracts the contact can be indirect. A yes stands for co-enrichment or nearness to the bait. Other partners may have been found.

Chains of the proteins cited; added tags and fusions are not shown.
UniProt P50579: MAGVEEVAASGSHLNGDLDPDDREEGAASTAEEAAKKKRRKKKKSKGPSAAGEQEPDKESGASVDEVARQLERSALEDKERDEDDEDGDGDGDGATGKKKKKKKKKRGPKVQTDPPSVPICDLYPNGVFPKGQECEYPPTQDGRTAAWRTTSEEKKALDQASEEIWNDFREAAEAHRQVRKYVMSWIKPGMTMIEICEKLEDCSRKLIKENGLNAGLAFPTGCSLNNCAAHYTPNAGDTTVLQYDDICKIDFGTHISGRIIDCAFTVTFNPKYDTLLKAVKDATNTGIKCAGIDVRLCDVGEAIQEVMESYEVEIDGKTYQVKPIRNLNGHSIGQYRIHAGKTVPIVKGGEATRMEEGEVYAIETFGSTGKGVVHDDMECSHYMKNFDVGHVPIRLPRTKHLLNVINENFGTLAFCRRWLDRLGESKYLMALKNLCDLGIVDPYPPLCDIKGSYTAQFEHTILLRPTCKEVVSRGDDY

The test concerns the target H3K4me1 peptide (C-terminal biotin-tagged 19 amino acid N-terminal peptide of histone H3, mono-methylated on Lys 4) (UniProt P68431). Put plainly: affinity purification with mass spectrometry; biotin-tagged H3 peptides incubated with nuclear extract of SW1990 cells, captured on streptavidin agarose, SDS-PAGE with silver staining, bands excised for electrospray-ion trap tandem mass spectrometry; only the target purified.

Regarding METAP2 (from UniProt P50579 1-478), the binding result is given as “binds”.

The record behind these values is article PMC10787067, “EBF2 Links KMT2D‐Mediated H3K4me1 to Suppress Pancreatic Cancer Progression via Upregulating KLLN” (Advanced Science, 2023).
